Test results as given in the supplement of paper PMC7238544.
Where a name gives a salt, the structure may show the parent alone. ± gives the standard deviation of the averaged measurements. The list shows a part of the results. The data scatter; read single values as rough.

Tests used:
[1] = tested on: hAMSC donor 1; experiment: Hoechst total cell count ratio vs vehicle control; higher = more cells (less toxicity)
[2] = tested on: hAMSC donor 2; experiment: as above
[3] = tested on: hAMSC donor 1; experiment: transgenic luciferase activity (RLU/mg protein) fold change vs vehicle control (ratio); higher = more transgene expression
[4] = tested on: hAMSC donor 2; experiment: as above
[5] = tested on: hAMSC donor 1; experiment: transfection efficiency (EGFP+ cells / Hoechst count) fold change vs vehicle control (ratio); hAMSC are human adipose-derived mesenchymal stem cells given an EGFP-luciferase plasmid by lipofection; higher = enhanced transfection
[6] = tested on: hAMSC donor 2; experiment: as above
[7] = priming compound concentration 0.2 µM
[8] = priming compound concentration 1.7 µM
[9] = priming compound concentration 13 µM

Structure (SMILES)	Hoechst total cell count ratio [1, 7]	Hoechst total cell count ratio [1, 8]	Hoechst total cell count ratio [1, 9]	Hoechst total cell count ratio [2, 7]	Hoechst total cell count ratio [2, 8]	Hoechst total cell count ratio [2, 9]	transgenic luciferase activity [3, 9]	transgenic luciferase activity [4, 7]	transgenic luciferase activity [4, 8]	transgenic luciferase activity [4, 9]	transfection efficiency [5, 7]	transfection efficiency [5, 8]	transfection efficiency [5, 9]	transfection efficiency [6, 7]	transfection efficiency [6, 8]	transfection efficiency [6, 9]	transgenic luciferase activity [3, 7]	transgenic luciferase activity [3, 8]
CCC1(c2ccc(N)cc2)CCC(=O)NC1=O (stereo unspecified) [Aminoglutethimide]	1.24 ± 0.23	1.36 ± 0.19	1.29 ± 0.26	1.14 ± 0.1	1.12 ± 0.057	1.32 ± 0.13	0.905 ± 0.35	0.611 ± 0.052	0.772 ± 0.031	0.681 ± 0.18	0.893 ± 0.089	1.11 ± 0.4	0.884 ± 0.24	0.915 ± 0.13	1.02 ± 0.058	0.952 ± 0.12		
CC[C@@H](C(N)=O)N1CCCC1=O [Levetiracetam]	1.14 ± 0.14	1.04 ± 0.034	1.16 ± 0.046	1.26 ± 0.33	1.16 ± 0.064	1.48 ± 0.044	0.724 ± 0.33				1.65 ± 1.1	1.2 ± 0.12	0.763 ± 0.23	1.1 ± 0.41	1.11 ± 0.28	0.753 ± 0.19		
C[C@]12CCC(=O)C=C1CC[C@@H]1[C@@H]2CC[C@@]2(C)[C@H]1CC[C@]2(C)O [Methyltestosterone]	1.34 ± 0.29	1.21 ± 0.12	1.22 ± 0.14	1.26 ± 0.41	1.64 ± 0.2	1.13 ± 0.33	0.594 ± 0.19				1.06 ± 0.2	1.19 ± 0.29	0.826 ± 0.26	1.05 ± 0.21	1 ± 0.079	1 ± 0.43		
c1ccc2c3c([nH]c2c1)CNCC3 [Tryptoline]	1.34 ± 0.05	1.44 ± 0.23	1.28 ± 0.076	0.818 ± 0.14	1.09 ± 0.052	1.26 ± 0.038					0.856 ± 0.11	1.23 ± 0.32	0.918 ± 0.048	1.32 ± 0.021	1.05 ± 0.061	0.895 ± 0.12	0.581 ± 0.45	
COc1ccc2[nH]cc(C3=CCNCC3)c2c1	1.44 ± 0.097	1.33 ± 0.082	1.46 ± 0.018	0.595 ± 0.094	1.17 ± 0.11	1.04 ± 0.11					1.49 ± 0.38	2.13 ± 0.36		1.49 ± 0.24	1.59 ± 0.11			1.06 ± 0.76
c1cncc([C@@H]2CCCN2)c1 [Nornicotine]	1.58 ± 0.24	1.46 ± 0.084	1.31 ± 0.18	1.36 ± 0.21	1.23 ± 0.1	1.29 ± 0.19	1 ± 0.31				1.09 ± 0.22	0.872 ± 0.18	0.966 ± 0.35	0.971 ± 0.055	1.14 ± 0.11	1.23 ± 0.26		
CC(C)CC(N(C)C)C1(c2ccc(Cl)cc2)CCC1 (stereo unspecified) [Sibutramine]	1.28 ± 0.24	1.24 ± 0.18	1.35 ± 0.14	1.3 ± 0.22	1.13 ± 0.088	1.23 ± 0.51	0.825 ± 0.58				0.9 ± 0.069	1.14 ± 0.055	0.802 ± 0.23	1.1 ± 0.33	1.26 ± 0.096	0.954 ± 0.42		
CC(NC(C)(C)C)C(=O)c1cccc(Cl)c1 (stereo unspecified) [Bupropion hydrochloride]	1.22 ± 0.069	1.23 ± 0.08	1.4 ± 0.073	1.03 ± 0.061	1.43 ± 0.33	1.01 ± 0.28	0.746 ± 0.24				0.903 ± 0.26	1.15 ± 0.16	0.572 ± 0.068	1.13 ± 0.17	1.26 ± 0.12	0.885 ± 0.26		
C[C@H]1CCC[C@H](O)CCCCCc2cc(O)cc(O)c2C(=O)O1 [Zeranol]	1.29 ± 0.17	1.14 ± 0.16	1.15 ± 0.12	1.49 ± 0.21	1.09 ± 0.067	1.36 ± 0.091	1 ± 0.15				0.909 ± 0.27	0.851 ± 0.17	1.31 ± 0.33	0.988 ± 0.11	1.27 ± 0.12	0.804 ± 0.084		
CC(=O)O[C@H]1C[C@@H]2CC[C@@H]3[C@H](CC[C@@]4(C)[C@H]3C[C@H]([N+]3(C)CCCCC3)[C@@H]4OC(C)=O)[C@@]2(C)C[C@@H]1[N+]1(C)CCCCC1 [Pancuronium dibromide]	1.2 ± 0.018	1.24 ± 0.081	1.37 ± 0.12	1.17 ± 0.043	1.03 ± 0.022	1.01 ± 0.13				0.542 ± 0.038	0.902 ± 0.19	0.969 ± 0.15	1.09 ± 0.41	1.1 ± 0.19	1.3 ± 0.043	1.29 ± 0.088		
CCN(CC)CCOC(=O)C(O)(c1ccccc1)c1ccccc1 [Benactyzine hydrochloride]	1.31 ± 0.17	1.31 ± 0.018	0.978 ± 0.098	0.993 ± 0.086	1.18 ± 0.014	1.28 ± 0.14					0.783 ± 0.2	0.786 ± 0.067	1.28 ± 0.36	1.13 ± 0.13	1.14 ± 0.035	1.02 ± 0.17	0.522 ± 0.38	
C[N+]1(C)CCN(c2ccccc2)CC1 [1,1-Dimethyl-4-phenylpiperazinium iodide]	1.2 ± 0.15	1.04 ± 0.057	1.27 ± 0.032	1.05 ± 0.17	0.859 ± 0.11	0.907 ± 0.089				0.623 ± 0.22	0.923 ± 0.42	1.44 ± 0.42	0.98 ± 0.15	0.945 ± 0.19	1.39 ± 0.041	1.35 ± 0.048		
COc1ccc(C(CN(C)C)C2(O)CCCCC2)cc1 (stereo unspecified) [Venlafaxine hydrochloride]	1.34 ± 0.1	1.35 ± 0.21	1.43 ± 0.053	1.1 ± 0.044	1.23 ± 0.056	1.42 ± 0.23			0.58 ± 0.36		1.01 ± 0.23	1.25 ± 0.2	1.09 ± 0.19	1.18 ± 0.063	1.03 ± 0.065	1.35 ± 0.1		
C=C1C[C@@H]2[C@H](CC[C@]3(C)C(=O)CC[C@@H]23)[C@@]2(C)C=CC(=O)C=C12 [Exemestane]	1.48 ± 0.13	1.49 ± 0.086	1.13 ± 0.05	1.25 ± 0.087	1.07 ± 0.15	1.18 ± 0.16					0.954 ± 0.28	0.995 ± 0.057	1.09 ± 0.042	0.985 ± 0.06	1.05 ± 0.11	1.14 ± 0.042	0.935 ± 0.22	
COc1ccc2c(c1)[C@]13CCCC[C@@H]1[C@H](C2)N(C)CC3 [Dextromethorphan hydrobromide, monohydrate]	1.48 ± 0.15	1.24 ± 0.38	1.93 ± 0.39	1.03 ± 0.085	1.16 ± 0.082	1.2 ± 0.11				0.589 ± 0.13	0.861 ± 0.11	1.16 ± 0.25	0.485 ± 0.071	1.07 ± 0.2	1.18 ± 0.35	0.78 ± 0.024		

Taken from above, 2 compounds:
Structure (SMILES)	Hoechst total cell count ratio [1, 7]	Hoechst total cell count ratio [1, 8]	Hoechst total cell count ratio [1, 9]	Hoechst total cell count ratio [2, 7]	Hoechst total cell count ratio [2, 8]	Hoechst total cell count ratio [2, 9]	transgenic luciferase activity [3, 9]	transgenic luciferase activity [4, 7]	transgenic luciferase activity [4, 8]	transgenic luciferase activity [4, 9]	transfection efficiency [5, 7]	transfection efficiency [5, 8]	transfection efficiency [5, 9]	transfection efficiency [6, 7]	transfection efficiency [6, 8]	transfection efficiency [6, 9]	transgenic luciferase activity [3, 7]	transgenic luciferase activity [3, 8]
c1ccc2c3c([nH]c2c1)CNCC3 [Tryptoline]	1.34 ± 0.05	1.44 ± 0.23	1.28 ± 0.076	0.818 ± 0.14	1.09 ± 0.052	1.26 ± 0.038					0.856 ± 0.11	1.23 ± 0.32	0.918 ± 0.048	1.32 ± 0.021	1.05 ± 0.061	0.895 ± 0.12	0.581 ± 0.45	
COc1ccc2[nH]cc(C3=CCNCC3)c2c1	1.44 ± 0.097	1.33 ± 0.082	1.46 ± 0.018	0.595 ± 0.094	1.17 ± 0.11	1.04 ± 0.11					1.49 ± 0.38	2.13 ± 0.36		1.49 ± 0.24	1.59 ± 0.11			1.06 ± 0.76
